Data taken from PMC12160916.
No constants are given. Whether binding was seen depends on the method and setting. Binding seen in cells or lysates may run through a third protein. Some results given as binding are weak or reduced against the parent protein; the word gives no strength.

The chains behind the UniProt entries cited, without tags or fusion partners.
UniProt Q9HAU4: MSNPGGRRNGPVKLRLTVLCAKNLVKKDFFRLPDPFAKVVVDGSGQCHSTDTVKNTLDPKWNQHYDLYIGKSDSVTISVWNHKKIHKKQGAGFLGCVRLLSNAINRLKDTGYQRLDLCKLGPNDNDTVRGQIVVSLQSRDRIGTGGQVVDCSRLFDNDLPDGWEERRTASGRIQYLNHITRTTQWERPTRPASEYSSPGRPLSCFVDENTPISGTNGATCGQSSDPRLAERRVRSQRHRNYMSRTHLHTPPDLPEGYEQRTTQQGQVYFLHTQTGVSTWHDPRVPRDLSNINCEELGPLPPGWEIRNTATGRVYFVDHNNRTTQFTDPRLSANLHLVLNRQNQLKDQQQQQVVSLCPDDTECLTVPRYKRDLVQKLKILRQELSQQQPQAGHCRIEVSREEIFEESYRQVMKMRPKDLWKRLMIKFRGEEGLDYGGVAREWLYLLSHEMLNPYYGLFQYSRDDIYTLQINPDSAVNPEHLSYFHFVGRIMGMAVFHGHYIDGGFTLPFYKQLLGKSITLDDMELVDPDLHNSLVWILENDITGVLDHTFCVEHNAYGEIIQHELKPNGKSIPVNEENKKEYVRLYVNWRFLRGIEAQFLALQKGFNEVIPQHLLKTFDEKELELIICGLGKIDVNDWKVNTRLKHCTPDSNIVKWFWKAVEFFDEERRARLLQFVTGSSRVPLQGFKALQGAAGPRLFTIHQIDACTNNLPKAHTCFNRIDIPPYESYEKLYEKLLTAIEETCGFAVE
UniProt P67809: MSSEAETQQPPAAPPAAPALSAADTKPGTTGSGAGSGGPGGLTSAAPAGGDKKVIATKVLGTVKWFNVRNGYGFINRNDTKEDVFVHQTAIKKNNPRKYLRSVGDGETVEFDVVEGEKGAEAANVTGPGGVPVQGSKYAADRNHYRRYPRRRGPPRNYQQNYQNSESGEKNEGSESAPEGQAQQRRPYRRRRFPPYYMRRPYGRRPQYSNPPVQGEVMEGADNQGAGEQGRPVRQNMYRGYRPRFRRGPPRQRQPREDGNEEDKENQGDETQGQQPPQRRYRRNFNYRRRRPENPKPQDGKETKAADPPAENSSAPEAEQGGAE

Target: Smad-specific E3 ubiquitin ligase 2 (SMURF2) (human (endogenous in MDA-MB-231 and MCF-7)) (UniProt Q9HAU4)
Experiment: co-IP; MDA-MB-231 and MCF-7 cells lysed in NP-40 lysis buffer; 1 mg lysate with 2 ug YBX1 antibody or 2 ug SMURF2 antibody overnight at 4°C, Protein A/G beads 6 h at 4°C, six washes, blotting; IgG control; also in control and MNX1-AS1-silenced cells (interaction enhanced by silencing)

- binding: binds
Substance: Y-box binding protein 1 (YBX1) (from UniProt P67809 1-324)
